Data from patent publication US10561629B2, “Food containing glycine and use thereof” (AJINOMOTO CO., INC., priority 2004, dated 2020).

Conditions: 2 g glycine per serving, five test participants

SMILES: NCC(=O)O [glycine, Glycine]
- Masking effect present, preferable effect (Eucommia ulmoides blend tea): 4 person
- Masking effect present, unpreferable effect (Eucommia ulmoides blend tea): 0 person
- No masking effect (Eucommia ulmoides blend tea): 1 person
- Masking effect present, preferable effect (Korean ginseng blend tea): 3 person
- Masking effect present, unpreferable effect (Korean ginseng blend tea): 0 person
- No masking effect (Korean ginseng blend tea): 2 person
- Masking effect present, preferable effect (Puer blend tea): 1 person
- Masking effect present, unpreferable effect (Puer blend tea): 2 person
- No masking effect (Puer blend tea): 2 person

Like-named read-outs stand apart in the source and are kept apart here.
